# These are yes or no findings as the source states them, for the method shown. Binding seen in cells or lysates may run through a third protein. Some binding calls cover weakened binding; strength is not graded here. For part of these data: Tags and fused reporters may be left off the sequences shown.
# Amino acid sequences for entries named in this document (tags omitted). A change or cut given only in a name is not applied to a line headed by its entry. Residues count along the entry.
# UniProt Q04206: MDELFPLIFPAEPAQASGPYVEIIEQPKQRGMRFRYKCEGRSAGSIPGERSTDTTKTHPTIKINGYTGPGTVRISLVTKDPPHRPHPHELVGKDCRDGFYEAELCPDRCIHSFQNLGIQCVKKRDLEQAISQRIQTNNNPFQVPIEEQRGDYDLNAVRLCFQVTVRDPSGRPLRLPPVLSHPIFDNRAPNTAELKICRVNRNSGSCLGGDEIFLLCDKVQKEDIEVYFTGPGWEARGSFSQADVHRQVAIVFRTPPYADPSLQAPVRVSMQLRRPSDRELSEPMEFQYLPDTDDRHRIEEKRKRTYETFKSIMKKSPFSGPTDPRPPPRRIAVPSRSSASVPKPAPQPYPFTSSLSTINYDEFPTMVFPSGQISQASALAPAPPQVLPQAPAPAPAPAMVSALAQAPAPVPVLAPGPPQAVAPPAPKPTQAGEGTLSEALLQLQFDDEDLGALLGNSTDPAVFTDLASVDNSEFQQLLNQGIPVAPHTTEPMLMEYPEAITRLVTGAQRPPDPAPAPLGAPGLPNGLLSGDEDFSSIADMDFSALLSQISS
# GST-RELA-N: residues 19-306 of Q04206
# T1: 3Flag-TEX10 region 3 (R3, A.A. 682-929) (UniProt Q9NXF1)
# T1 sequence: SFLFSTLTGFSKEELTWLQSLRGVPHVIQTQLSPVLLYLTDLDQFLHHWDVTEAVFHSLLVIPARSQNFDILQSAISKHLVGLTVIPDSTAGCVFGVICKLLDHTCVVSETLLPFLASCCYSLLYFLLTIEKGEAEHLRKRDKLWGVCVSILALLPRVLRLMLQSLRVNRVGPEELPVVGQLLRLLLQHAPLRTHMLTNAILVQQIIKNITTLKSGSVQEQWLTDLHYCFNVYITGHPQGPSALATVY
# T2: 3Flag-TEX10, full length (UniProt Q9NXF1)
# T2 sequence: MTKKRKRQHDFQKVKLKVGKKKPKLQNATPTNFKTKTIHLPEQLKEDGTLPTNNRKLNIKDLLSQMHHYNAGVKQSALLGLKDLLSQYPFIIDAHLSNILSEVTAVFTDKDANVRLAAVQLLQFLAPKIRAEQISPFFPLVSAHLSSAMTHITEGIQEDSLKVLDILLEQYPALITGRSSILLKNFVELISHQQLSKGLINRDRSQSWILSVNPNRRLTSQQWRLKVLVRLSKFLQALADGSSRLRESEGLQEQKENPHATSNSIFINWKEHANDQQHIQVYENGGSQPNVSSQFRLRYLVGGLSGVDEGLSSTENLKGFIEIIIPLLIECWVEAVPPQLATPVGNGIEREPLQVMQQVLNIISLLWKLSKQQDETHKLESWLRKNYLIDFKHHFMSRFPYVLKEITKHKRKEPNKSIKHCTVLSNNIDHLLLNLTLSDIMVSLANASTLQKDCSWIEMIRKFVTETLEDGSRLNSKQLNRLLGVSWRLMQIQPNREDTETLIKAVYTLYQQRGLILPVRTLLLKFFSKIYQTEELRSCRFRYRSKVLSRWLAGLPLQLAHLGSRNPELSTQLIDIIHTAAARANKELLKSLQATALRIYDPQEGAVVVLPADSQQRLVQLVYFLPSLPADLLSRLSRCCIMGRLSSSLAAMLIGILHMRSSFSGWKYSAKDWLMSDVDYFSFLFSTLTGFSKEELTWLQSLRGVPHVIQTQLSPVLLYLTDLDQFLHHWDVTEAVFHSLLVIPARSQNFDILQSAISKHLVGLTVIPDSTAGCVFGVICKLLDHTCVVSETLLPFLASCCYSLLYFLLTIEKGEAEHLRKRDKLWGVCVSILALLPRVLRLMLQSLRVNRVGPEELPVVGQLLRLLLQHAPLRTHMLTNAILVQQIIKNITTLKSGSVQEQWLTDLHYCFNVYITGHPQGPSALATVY
# T3: 3Flag-TEX10 region 2 (R2, A.A. 236-681) (UniProt Q9NXF1)
# T3 sequence: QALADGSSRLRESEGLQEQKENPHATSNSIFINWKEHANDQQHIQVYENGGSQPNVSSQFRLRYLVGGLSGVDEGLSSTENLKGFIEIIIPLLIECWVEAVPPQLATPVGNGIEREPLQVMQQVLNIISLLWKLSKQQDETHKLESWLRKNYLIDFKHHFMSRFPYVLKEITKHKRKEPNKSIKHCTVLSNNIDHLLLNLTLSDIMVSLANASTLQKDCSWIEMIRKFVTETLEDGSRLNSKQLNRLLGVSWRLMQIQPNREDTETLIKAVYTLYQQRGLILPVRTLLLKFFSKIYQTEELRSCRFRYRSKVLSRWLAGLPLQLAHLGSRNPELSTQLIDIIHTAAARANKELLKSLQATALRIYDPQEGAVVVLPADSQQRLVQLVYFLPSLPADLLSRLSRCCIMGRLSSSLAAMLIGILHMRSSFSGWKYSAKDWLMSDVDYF
# T4: 3Flag-TEX10 region 1 (R1, A.A. 1-235) (UniProt Q9NXF1)
# T4 sequence: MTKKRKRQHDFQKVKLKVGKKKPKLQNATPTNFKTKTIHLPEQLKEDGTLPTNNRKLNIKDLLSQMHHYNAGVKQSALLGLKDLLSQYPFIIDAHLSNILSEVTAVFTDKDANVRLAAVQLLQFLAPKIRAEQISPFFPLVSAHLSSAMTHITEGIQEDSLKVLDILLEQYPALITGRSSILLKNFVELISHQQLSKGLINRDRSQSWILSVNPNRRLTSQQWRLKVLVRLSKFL
# T5: Myc-TEX10 (testis expressed 10) (UniProt Q9NXF1)
# T5 sequence: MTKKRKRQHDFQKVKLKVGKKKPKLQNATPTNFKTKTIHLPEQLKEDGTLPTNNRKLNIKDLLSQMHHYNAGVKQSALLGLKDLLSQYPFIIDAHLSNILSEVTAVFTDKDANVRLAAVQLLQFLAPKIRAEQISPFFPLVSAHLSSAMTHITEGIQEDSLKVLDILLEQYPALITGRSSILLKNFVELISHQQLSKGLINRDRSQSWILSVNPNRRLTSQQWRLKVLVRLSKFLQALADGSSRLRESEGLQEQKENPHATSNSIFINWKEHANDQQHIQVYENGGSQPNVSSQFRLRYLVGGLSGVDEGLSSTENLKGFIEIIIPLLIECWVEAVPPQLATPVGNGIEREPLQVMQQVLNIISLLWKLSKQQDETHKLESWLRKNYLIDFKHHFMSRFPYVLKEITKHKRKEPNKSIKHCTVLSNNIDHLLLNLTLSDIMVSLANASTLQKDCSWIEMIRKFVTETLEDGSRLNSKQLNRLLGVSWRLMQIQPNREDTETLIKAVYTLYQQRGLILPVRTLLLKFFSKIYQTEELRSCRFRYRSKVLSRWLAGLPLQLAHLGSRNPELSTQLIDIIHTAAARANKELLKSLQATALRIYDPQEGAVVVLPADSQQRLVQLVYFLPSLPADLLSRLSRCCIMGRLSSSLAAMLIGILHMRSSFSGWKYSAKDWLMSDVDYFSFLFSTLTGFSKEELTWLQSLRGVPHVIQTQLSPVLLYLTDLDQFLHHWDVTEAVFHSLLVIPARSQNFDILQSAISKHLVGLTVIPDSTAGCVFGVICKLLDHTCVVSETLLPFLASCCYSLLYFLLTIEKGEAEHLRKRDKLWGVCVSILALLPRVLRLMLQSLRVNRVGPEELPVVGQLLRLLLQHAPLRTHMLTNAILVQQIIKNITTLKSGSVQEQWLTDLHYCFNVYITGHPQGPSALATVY
# T6: TEX10, endogenous (human (endogenous in HCT116 and DLD1)) (UniProt Q9NXF1)
# T6 sequence: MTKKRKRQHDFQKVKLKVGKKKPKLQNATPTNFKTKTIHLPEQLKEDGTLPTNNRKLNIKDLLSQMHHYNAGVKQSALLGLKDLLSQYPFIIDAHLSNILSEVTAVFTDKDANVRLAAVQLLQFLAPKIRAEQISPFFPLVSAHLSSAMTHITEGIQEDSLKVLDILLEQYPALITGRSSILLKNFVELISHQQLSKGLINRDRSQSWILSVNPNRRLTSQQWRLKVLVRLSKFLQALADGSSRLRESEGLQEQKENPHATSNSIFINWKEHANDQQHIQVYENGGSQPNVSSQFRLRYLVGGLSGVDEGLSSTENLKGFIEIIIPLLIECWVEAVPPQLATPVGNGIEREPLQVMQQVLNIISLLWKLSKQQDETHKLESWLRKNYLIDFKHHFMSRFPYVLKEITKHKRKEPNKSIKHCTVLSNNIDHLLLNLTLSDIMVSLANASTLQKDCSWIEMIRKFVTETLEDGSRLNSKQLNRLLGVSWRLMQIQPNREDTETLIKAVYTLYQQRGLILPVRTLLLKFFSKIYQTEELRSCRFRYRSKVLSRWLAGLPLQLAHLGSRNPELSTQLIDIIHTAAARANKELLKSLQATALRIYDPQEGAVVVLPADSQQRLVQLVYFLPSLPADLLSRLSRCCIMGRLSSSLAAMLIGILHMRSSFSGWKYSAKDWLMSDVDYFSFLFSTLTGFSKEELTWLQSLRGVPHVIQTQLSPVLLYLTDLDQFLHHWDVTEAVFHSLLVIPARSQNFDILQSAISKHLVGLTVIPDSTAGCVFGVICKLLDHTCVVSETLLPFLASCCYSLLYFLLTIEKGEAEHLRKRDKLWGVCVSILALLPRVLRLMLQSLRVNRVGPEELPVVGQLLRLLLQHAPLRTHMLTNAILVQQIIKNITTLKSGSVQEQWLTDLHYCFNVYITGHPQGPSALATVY
# What was measured:
# [1] = target: T1, 3Flag-TEX10 region 3 (R3, A.A. 682-929); assay: co-IP; HEK293T cells cotransfected with 3Flag-tagged TEX10 or TEX10 truncations and Myc-RELA; lysates immunoprecipitated with anti-Flag, immunoblot with anti-Myc and anti-Flag
# 3Flag-TEX10, full length = target: T2, 3Flag-TEX10, full length; assay: as above
# [2] = target: T3, 3Flag-TEX10 region 2 (R2, A.A. 236-681); assay: as above
# [3] = target: T4, 3Flag-TEX10 region 1 (R1, A.A. 1-235); assay: as above
# [4] = target: T5, Myc-TEX10 (testis expressed 10); assay: co-IP; HEK293T cells cotransfected with Flag-tagged proteins and Myc-TEX10; lysates immunoprecipitated with anti-Myc, immunoblot with anti-Flag and anti-Myc; antibody 1 h at 4 °C, protein G beads overnight
# [5] = target: T6, TEX10, endogenous (human (endogenous in HCT116 and DLD1)); assay: co-IP; endogenous proteins; HCT116 and DLD1 lysates immunoprecipitated with IgG or anti-TEX10, immunoblot with anti-RELA and anti-TEX10
# GST-RELA-N = GST-RELA-N (UniProt Q04206); assay: pull-down; GST pull-down: in vitro translated Myc-TEX10 incubated with GST proteins (from E. coli BL21) overnight, analysed by immunoblot; only the target purified
molecule,measurement,setting,value
Myc-RELA (from UniProt Q04206 1-551),binding,[1],binds
same,binding,"3Flag-TEX10, full length",binds
same,binding,[2],binds
same,binding,[3],binds
Flag-RELA-N (Rel homology domain only) (from UniProt Q04206 19-306) (domain or fragment),binding,[4],binds
"RELA, endogenous (from UniProt Q04206 1-551)",binding,[5],binds
Flag-RELA (from UniProt Q04206 1-551),binding,[4],binds
"Flag-p52 (protein, UniProt Q00653 1-454) MESCYNPGLDGIIEYDDFKLNSSIVEPKEPAPETADGPYLVIVEQPKQRGFRFRYGCEGPSHGGLPGASSEKGRKTYPTVKICNYEGPAKIEVDLVTHSDPPRAHAHSLVGKQCSELGICAVSVGPKDMTAQFNNLGVLHVTKKNMMGTMIQKLQRQRLRSRPQGLTEAEQRELEQEAKELKKVMDLSIVRLRFSAFLRASDGSFSLPLKPVISQPIHDSKSPGASNLKISRMDKTAGSVRGGDEVYLLCDKVQKDDIEVRFYEDDENGWQAFGDFSPTDVHKQYAIVFRTPPYHKMKIERPVTVFLQLKRKRGGDVSDSKQFTYYPLVEDKEEVQRKRRKALPTFSQPFGGGSHMGGGSGGAAGGYGGAGGGGSLGFFPSSLAYSPYQSGAGPMGCYPGGGGGAQMAATVPSRDSGEEAAEPSAPSRTPQCEPQAPEMLQRAREYNARLFGLA",binding,[4],binds
"Myc-TEX10, in vitro translated (protein, UniProt Q9NXF1 1-929) MTKKRKRQHDFQKVKLKVGKKKPKLQNATPTNFKTKTIHLPEQLKEDGTLPTNNRKLNIKDLLSQMHHYNAGVKQSALLGLKDLLSQYPFIIDAHLSNILSEVTAVFTDKDANVRLAAVQLLQFLAPKIRAEQISPFFPLVSAHLSSAMTHITEGIQEDSLKVLDILLEQYPALITGRSSILLKNFVELISHQQLSKGLINRDRSQSWILSVNPNRRLTSQQWRLKVLVRLSKFLQALADGSSRLRESEGLQEQKENPHATSNSIFINWKEHANDQQHIQVYENGGSQPNVSSQFRLRYLVGGLSGVDEGLSSTENLKGFIEIIIPLLIECWVEAVPPQLATPVGNGIEREPLQVMQQVLNIISLLWKLSKQQDETHKLESWLRKNYLIDFKHHFMSRFPYVLKEITKHKRKEPNKSIKHCTVLSNNIDHLLLNLTLSDIMVSLANASTLQKDCSWIEMIRKFVTETLEDGSRLNSKQLNRLLGVSWRLMQIQPNREDTETLIKAVYTLYQQRGLILPVRTLLLKFFSKIYQTEELRSCRFRYRSKVLSRWLAGLPLQLAHLGSRNPELSTQLIDIIHTAAARANKELLKSLQATALRIYDPQEGAVVVLPADSQQRLVQLVYFLPSLPADLLSRLSRCCIMGRLSSSLAAMLIGILHMRSSFSGWKYSAKDWLMSDVDYFSFLFSTLTGFSKEELTWLQSLRGVPHVIQTQLSPVLLYLTDLDQFLHHWDVTEAVFHSLLVIPARSQNFDILQSAISKHLVGLTVIPDSTAGCVFGVICKLLDHTCVVSETLLPFLASCCYSLLYFLLTIEKGEAEHLRKRDKLWGVCVSILALLPRVLRLMLQSLRVNRVGPEELPVVGQLLRLLLQHAPLRTHMLTNAILVQQIIKNITTLKSGSVQEQWLTDLHYCFNVYITGHPQGPSALATVY",binding,GST-RELA-N,binds

# From paper PMC7507032
